Assay results published in paper doi:10.1101/434159.
These are yes or no findings as the source states them, for the method shown. In cells and extracts the contact can be indirect. Some results given as binding are weak or reduced against the parent protein; the word gives no strength. For part of these data: Where a sequence is shown, tags or fusion partners need not be part of it.

Amino acid sequences for entries named in this document (tags omitted).
UniProt Q3TKT4: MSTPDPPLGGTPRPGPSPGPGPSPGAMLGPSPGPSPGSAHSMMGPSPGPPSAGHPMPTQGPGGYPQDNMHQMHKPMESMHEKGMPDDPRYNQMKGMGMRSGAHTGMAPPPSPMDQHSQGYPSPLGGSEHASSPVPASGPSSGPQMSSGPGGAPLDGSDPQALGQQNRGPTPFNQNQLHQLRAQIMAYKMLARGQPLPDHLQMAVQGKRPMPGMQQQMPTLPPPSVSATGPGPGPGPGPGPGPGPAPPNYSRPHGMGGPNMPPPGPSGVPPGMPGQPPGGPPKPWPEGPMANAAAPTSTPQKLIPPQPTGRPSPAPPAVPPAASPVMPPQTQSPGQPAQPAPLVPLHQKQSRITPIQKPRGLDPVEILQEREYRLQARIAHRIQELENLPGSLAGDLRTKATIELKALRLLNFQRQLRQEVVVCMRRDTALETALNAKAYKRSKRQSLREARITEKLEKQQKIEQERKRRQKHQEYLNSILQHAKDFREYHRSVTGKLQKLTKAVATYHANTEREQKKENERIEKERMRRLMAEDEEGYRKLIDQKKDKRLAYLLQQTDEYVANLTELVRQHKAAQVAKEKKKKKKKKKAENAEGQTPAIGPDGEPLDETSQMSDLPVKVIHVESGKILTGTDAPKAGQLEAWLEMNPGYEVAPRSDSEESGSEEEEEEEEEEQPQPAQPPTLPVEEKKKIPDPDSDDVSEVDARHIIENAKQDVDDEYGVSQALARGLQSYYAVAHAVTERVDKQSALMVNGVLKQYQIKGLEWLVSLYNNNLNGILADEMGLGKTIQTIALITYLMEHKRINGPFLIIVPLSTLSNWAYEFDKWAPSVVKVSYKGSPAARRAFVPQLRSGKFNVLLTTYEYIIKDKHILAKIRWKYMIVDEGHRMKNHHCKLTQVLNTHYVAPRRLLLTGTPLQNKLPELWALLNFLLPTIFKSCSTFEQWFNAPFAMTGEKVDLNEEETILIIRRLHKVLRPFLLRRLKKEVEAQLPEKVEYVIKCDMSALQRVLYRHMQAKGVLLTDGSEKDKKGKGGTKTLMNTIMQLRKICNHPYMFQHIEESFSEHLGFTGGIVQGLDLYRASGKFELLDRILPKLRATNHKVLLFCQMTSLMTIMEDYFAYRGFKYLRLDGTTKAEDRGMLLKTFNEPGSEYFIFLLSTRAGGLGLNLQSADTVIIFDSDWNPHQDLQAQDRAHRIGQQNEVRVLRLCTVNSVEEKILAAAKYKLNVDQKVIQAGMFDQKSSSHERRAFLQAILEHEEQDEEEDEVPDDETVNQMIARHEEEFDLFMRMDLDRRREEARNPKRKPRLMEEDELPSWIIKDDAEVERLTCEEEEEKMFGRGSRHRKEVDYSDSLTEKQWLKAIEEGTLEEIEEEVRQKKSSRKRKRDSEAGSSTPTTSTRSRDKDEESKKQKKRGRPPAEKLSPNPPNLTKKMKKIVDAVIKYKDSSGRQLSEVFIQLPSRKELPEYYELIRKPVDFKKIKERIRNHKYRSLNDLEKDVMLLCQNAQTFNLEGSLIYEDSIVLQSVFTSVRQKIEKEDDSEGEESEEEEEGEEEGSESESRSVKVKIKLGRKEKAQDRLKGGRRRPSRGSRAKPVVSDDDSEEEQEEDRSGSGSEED
UniProt Q61466: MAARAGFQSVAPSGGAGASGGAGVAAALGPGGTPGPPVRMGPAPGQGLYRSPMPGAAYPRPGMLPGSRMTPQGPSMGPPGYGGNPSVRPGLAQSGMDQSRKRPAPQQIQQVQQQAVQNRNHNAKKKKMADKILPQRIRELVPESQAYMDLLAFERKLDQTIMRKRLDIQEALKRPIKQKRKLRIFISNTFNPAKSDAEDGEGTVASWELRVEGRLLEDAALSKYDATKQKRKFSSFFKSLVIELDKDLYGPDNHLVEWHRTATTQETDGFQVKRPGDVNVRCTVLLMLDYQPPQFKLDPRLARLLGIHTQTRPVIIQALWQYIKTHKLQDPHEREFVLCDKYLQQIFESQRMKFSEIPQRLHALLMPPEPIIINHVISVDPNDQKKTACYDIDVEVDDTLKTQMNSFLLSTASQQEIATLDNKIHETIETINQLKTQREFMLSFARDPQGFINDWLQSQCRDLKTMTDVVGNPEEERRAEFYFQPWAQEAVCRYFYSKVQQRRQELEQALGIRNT
UniProt Q99JR8: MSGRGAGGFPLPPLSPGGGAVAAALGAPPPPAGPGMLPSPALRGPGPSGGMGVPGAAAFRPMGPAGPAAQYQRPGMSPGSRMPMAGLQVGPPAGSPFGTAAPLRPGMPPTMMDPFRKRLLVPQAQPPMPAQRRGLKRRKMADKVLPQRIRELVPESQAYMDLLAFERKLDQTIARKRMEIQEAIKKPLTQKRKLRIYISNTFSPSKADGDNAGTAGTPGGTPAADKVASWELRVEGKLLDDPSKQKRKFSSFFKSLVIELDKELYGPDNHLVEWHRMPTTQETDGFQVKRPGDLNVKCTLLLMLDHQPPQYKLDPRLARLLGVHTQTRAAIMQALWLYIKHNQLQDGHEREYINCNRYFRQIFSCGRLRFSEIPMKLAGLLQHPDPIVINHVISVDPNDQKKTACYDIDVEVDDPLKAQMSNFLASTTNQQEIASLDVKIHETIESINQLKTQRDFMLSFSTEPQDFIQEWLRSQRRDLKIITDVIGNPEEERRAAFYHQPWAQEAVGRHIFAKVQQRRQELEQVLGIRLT
UniProt Q6P9Z1: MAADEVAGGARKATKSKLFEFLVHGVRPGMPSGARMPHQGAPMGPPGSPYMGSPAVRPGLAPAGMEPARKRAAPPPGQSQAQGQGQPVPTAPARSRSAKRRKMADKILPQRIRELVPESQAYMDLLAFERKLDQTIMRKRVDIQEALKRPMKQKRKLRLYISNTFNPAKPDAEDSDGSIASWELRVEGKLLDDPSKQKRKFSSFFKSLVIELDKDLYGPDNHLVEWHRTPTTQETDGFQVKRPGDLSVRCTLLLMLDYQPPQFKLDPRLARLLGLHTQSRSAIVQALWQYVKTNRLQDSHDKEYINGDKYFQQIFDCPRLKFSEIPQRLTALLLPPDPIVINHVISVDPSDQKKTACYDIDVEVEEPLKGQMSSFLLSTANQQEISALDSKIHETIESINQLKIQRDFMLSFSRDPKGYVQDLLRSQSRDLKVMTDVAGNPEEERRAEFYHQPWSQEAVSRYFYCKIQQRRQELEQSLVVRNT
UniProt P97496: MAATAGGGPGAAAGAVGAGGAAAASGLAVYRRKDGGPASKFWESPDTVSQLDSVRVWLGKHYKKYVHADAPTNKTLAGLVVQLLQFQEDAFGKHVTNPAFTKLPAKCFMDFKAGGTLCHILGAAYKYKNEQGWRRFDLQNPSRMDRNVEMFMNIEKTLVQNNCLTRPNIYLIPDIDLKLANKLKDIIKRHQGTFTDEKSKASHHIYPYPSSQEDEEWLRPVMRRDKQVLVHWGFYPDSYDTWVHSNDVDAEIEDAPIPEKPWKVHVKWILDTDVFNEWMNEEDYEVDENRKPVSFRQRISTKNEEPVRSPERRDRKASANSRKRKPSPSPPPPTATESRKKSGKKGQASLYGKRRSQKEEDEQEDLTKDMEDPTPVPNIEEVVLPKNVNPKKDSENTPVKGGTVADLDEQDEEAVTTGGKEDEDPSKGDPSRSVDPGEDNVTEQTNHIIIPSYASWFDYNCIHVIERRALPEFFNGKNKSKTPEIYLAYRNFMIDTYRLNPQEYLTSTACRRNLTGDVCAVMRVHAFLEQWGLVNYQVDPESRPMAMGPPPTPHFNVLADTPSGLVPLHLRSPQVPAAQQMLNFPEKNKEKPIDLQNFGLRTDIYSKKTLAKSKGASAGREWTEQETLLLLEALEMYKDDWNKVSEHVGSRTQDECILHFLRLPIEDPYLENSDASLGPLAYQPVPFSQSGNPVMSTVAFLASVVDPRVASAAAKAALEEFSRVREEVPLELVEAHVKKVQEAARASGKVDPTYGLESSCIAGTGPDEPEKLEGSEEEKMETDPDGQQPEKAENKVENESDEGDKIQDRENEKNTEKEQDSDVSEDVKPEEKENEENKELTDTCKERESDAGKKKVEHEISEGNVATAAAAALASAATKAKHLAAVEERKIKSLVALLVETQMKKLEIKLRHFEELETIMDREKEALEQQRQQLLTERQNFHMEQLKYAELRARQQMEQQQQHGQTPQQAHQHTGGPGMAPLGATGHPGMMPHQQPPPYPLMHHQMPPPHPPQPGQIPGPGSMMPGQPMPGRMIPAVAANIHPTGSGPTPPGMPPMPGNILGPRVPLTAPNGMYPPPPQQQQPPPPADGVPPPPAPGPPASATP
UniProt P48432: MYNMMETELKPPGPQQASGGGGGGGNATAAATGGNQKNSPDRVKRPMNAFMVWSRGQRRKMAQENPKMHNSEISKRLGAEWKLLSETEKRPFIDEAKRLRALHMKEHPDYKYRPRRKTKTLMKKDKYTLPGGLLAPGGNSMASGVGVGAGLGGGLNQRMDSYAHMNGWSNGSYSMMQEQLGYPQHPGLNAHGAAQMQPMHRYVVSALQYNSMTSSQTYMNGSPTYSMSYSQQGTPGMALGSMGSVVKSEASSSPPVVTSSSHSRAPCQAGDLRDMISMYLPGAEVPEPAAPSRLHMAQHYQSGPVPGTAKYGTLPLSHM

T1: 2×HA-3×Flag-Eya1 (knock-in mouse line) (mouse (knock-in mouse line)) (UniProt P97767)
T1 sequence: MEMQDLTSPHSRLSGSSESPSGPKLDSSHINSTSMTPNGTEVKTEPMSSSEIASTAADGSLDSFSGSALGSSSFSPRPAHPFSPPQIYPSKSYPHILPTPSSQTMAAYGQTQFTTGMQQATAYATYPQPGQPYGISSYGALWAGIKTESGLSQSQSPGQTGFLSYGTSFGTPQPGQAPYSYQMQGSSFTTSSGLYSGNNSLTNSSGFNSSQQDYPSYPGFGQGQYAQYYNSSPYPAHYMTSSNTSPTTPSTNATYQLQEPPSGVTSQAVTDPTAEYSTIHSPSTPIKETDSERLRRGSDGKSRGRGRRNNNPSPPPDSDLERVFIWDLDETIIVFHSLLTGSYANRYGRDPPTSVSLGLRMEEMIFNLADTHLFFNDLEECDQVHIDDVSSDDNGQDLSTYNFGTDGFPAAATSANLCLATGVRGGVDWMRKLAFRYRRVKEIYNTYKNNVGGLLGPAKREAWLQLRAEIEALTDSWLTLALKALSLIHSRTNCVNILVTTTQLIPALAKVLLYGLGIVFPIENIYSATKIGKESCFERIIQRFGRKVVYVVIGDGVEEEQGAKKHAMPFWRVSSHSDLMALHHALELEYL

T2: Six1 (mouse (endogenous in embryonic cochlea)) (UniProt Q62231)
T2 sequence: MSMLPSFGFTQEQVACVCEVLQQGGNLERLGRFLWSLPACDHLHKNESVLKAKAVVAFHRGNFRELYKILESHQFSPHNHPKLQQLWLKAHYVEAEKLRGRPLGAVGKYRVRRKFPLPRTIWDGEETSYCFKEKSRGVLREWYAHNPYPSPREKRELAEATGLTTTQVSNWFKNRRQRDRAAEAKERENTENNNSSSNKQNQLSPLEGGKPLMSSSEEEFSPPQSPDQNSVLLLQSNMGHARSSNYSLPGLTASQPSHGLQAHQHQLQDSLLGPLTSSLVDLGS


Columns and labels:
Assay in all cases: co-IP
[1] = molecular target: T1, 2×HA-3×Flag-Eya1 (knock-in mouse line) (mouse (knock-in mouse line))
[2] = molecular target: T2, Six1 (mouse (endogenous in embryonic cochlea))
[3] = molecular target: Brg1 (mouse (endogenous in embryonic cochlea)) (UniProt Q3TKT4)

Row | Molecule | binding [1] | binding [2] | binding [3]
1 | BAF60a (from UniProt Q61466 1-515) | binds | binds | binds
2 | BAF60b (from UniProt Q99JR8 1-531) | no binding | no binding | binds
3 | BAF60c (from UniProt Q6P9Z1 1-483) | binds | binds | binds
4 | BAF155 (from UniProt P97496 1-1104) | binds |  | binds
5 | Brg1 (from UniProt Q3TKT4 1-1613) | binds | binds | 
6 | Sox2 (from UniProt P48432 1-319) |  |  | binds
7 | Six1 (protein, UniProt Q62231 1-284) MSMLPSFGFTQEQVACVCEVLQQGGNLERLGRFLWSLPACDHLHKNESVLKAKAVVAFHRGNFRELYKILESHQFSPHNHPKLQQLWLKAHYVEAEKLRGRPLGAVGKYRVRRKFPLPRTIWDGEETSYCFKEKSRGVLREWYAHNPYPSPREKRELAEATGLTTTQVSNWFKNRRQRDRAAEAKERENTENNNSSSNKQNQLSPLEGGKPLMSSSEEEFSPPQSPDQNSVLLLQSNMGHARSSNYSLPGLTASQPSHGLQAHQHQLQDSLLGPLTSSLVDLGS | binds |  | 
